# Source: the supplement of paper PMC8728848
# The other results are listed elsewhere or left out.
# B1: Gal 10 (Homo sapiens), Q05315 (protein)
# chain: MSLLPVPYTEAASLSTGSTVTIKGRPLVCFLNEPYLQVDFHTEMKEESDIVFHFQVCFGRRVVMNSREYGAWKQQVESKNMPFQDGQEFELSISVLPDKYQVMVNGQSSYTFDHRIKPEAVKMVQVWRDISLTKFNVSYLKR
# What was measured:
# Assay in all cases: glycan array binding signal (z-score within array); higher = stronger binding
# Conditions in all cases: glycan notation: IUPAC condensed, linker removed
# Gal6S(b1-4)Glc = target: Gal6S(b1-4)Glc
# Procedure, shortened: (§1)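 The binding signal is a Z-score computed within each array. Data were drawn from 3228 arrays in the Consortium for Functional Glycomics database, restricted to those with a known protein sequence. Scores were averaged over arrays of the same protein sequence at different concentrations or buffers, and over linkers, and negative values can be taken as non-binding.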
# Gal6S(b1-4)Glc6S = target: Gal6S(b1-4)Glc6S
# Procedure, shortened: as §1
# Gal6S(b1-4)GlcNAc = target: Gal6S(b1-4)GlcNAc
# Procedure, shortened: as §1
# Gal6S(b1-4)GlcNAc6S = target: Gal6S(b1-4)GlcNAc6S
# Procedure, shortened: as §1
# GalNAc(a1-3)Gal = target: GalNAc(a1-3)Gal
# Procedure, shortened: as §1
# GalNAc(a1-3)GalNAc = target: GalNAc(a1-3)GalNAc
# Procedure, shortened: as §1
# [1] = target: GalNAc(a1-3)GalNAc(a1-3)Gal(a1-4)Gal(b1-4)GlcNAc
# Procedure, shortened: as §1
# [2] = target: GalNAc(a1-3)GalNAc(b1-3)Gal(a1-4)Gal(b1-4)Glc
# Procedure, shortened: as §1
# [3] = target: GalNAc(a1-3)GalNAc(b1-3)Gal(a1-4)Gal(b1-4)GlcNAc
# Procedure, shortened: as §1
# GalNAc(b1-3)Gal = target: GalNAc(b1-3)Gal
# Procedure, shortened: as §1
# [4] = target: GalNAc(b1-3)Gal(a1-4)Gal(b1-4)GlcNAc
# Procedure, shortened: as §1
# [5] = target: GalNAc(b1-3)Gal(a1-4)Gal(b1-4)GlcNAc(b1-3)Gal(b1-4)Glc
# Procedure, shortened: as §1
# [6] = target: GalNAc(b1-3)Gal(a1-6)Gal(b1-4)Glc
# Procedure, shortened: as §1
# GalNAc(b1-3)GalNAc = target: GalNAc(b1-3)GalNAc
# Procedure, shortened: as §1
# GalNAc(b1-3)GlcNAc = target: GalNAc(b1-3)GlcNAc
# Procedure, shortened: as §1
# GalNAc(b1-4)Gal(b1-4)Glc = target: GalNAc(b1-4)Gal(b1-4)Glc
# Procedure, shortened: as §1
# GalNAc(b1-4)GlcNAc = target: GalNAc(b1-4)GlcNAc
# Procedure, shortened: as §1
# [7] = target: GalNAc(b1-4)GlcNAc(b1-2)Man
# Procedure, shortened: as §1
# [8] = target: GalNAc(b1-4)GlcNAc(b1-2)Man(a1-3)[GalNAc(b1-4)GlcNAc(b1-2)Man(a1-6)]Man(b1-4)GlcNAc(b1-4)GlcNAc
# Procedure, shortened: as §1
# [9] = target: GalNAc(b1-4)GlcNAc(b1-3)GalNAc(b1-4)GlcNAc
# Procedure, shortened: as §1
# GalNAc(b1-4)GlcNAc6S = target: GalNAc(b1-4)GlcNAc6S
# Procedure, shortened: as §1
# GalNAc(b1-6)GalNAc = target: GalNAc(b1-6)GalNAc
# Procedure, shortened: as §1
# GalNAc3S(b1-4)GlcNAc = target: GalNAc3S(b1-4)GlcNAc
# Procedure, shortened: as §1
# GalNAc3S(b1-4)GlcNAc3S = target: GalNAc3S(b1-4)GlcNAc3S
# Procedure, shortened: as §1
# [10] = target: GalNAc3S(b1-4)[Fuc(a1-3)]GlcNAc
# Procedure, shortened: as §1
# GalNAc4S6S(b1-4)GlcNAc = target: GalNAc4S6S(b1-4)GlcNAc
# Procedure, shortened: as §1
# GalNAc6S(b1-4)GlcNAc = target: GalNAc6S(b1-4)GlcNAc
# Procedure, shortened: as §1
# Glc(a1-4)Glc = target: Glc(a1-4)Glc
# Procedure, shortened: as §1
# [11] = target: Glc(a1-4)Glc(a1-4)Glc(a1-4)Glc
# Procedure, shortened: as §1
# Glc(a1-6)Glc(a1-6)Glc = target: Glc(a1-6)Glc(a1-6)Glc
# Procedure, shortened: as §1
# [12] = target: Glc(a1-6)Glc(a1-6)Glc(a1-6)Glc
# Procedure, shortened: as §1
# Glc(b1-4)Glc = target: Glc(b1-4)Glc
# Procedure, shortened: as §1
# Glc(b1-6)Glc = target: Glc(b1-6)Glc
# Procedure, shortened: as §1
# GlcA(b1-3)Gal = target: GlcA(b1-3)Gal
# Procedure, shortened: as §1
# GlcA(b1-3)GlcNAc = target: GlcA(b1-3)GlcNAc
# Procedure, shortened: as §1
# GlcA(b1-6)Gal = target: GlcA(b1-6)Gal
# Procedure, shortened: as §1
# [13] = target: GlcA3S(b1-3)Gal(b1-4)GlcNAc(b1-2)Man
# Procedure, shortened: as §1
# [14] = target: GlcA3S(b1-3)Gal(b1-4)GlcNAc(b1-3)Gal(b1-4)Glc
# Procedure, shortened: as §1
# [15] = target: GlcNAc(a1-3)Gal(b1-4)GlcNAc
# Procedure, shortened: as §1
# [16] = target: GlcNAc(a1-4)Gal(b1-3)GlcNAc
# Procedure, shortened: as §1
# [17] = target: GlcNAc(a1-4)Gal(b1-4)GalNAc
# Procedure, shortened: as §1
# [18] = target: GlcNAc(a1-4)Gal(b1-4)GlcNAc
# Procedure, shortened: as §1
# [19] = target: GlcNAc(a1-4)Gal(b1-4)GlcNAc(b1-3)Gal(b1-4)Glc
# Procedure, shortened: as §1
# [20] = target: GlcNAc(a1-4)Gal(b1-4)GlcNAc(b1-3)Gal(b1-4)GlcNAc
# Procedure, shortened: as §1
# [21] = target: GlcNAc(a1-4)Gal(b1-4)GlcNAc(b1-3)Gal(b1-4)GlcNAc(b1-3)Gal(b1-4)GlcNAc
# Procedure, shortened: as §1
binder,measurement,setting,value
B1,glycan array binding signal (z-score),Gal6S(b1-4)Glc,-0.181
same,glycan array binding signal (z-score),Gal6S(b1-4)Glc6S,-0.014
same,glycan array binding signal (z-score),Gal6S(b1-4)GlcNAc,-0.568
same,glycan array binding signal (z-score),Gal6S(b1-4)GlcNAc6S,0.208
same,glycan array binding signal (z-score),GalNAc(a1-3)Gal,-0.104
same,glycan array binding signal (z-score),GalNAc(a1-3)GalNAc,-0.834
same,glycan array binding signal (z-score),[1],-0.788
same,glycan array binding signal (z-score),[2],0.071
same,glycan array binding signal (z-score),[3],0.054
same,glycan array binding signal (z-score),GalNAc(b1-3)Gal,-0.012
same,glycan array binding signal (z-score),[4],-0.318
same,glycan array binding signal (z-score),[5],-1.07
same,glycan array binding signal (z-score),[6],-0.345
same,glycan array binding signal (z-score),GalNAc(b1-3)GalNAc,-0.693
same,glycan array binding signal (z-score),GalNAc(b1-3)GlcNAc,-0.501
same,glycan array binding signal (z-score),GalNAc(b1-4)Gal(b1-4)Glc,2.27
same,glycan array binding signal (z-score),GalNAc(b1-4)GlcNAc,-0.046
same,glycan array binding signal (z-score),[7],-0.146
same,glycan array binding signal (z-score),[8],0.225
same,glycan array binding signal (z-score),[9],-0.43
same,glycan array binding signal (z-score),GalNAc(b1-4)GlcNAc6S,0.088
same,glycan array binding signal (z-score),GalNAc(b1-6)GalNAc,1.06
same,glycan array binding signal (z-score),GalNAc3S(b1-4)GlcNAc,-0.035
same,glycan array binding signal (z-score),GalNAc3S(b1-4)GlcNAc3S,-0.463
same,glycan array binding signal (z-score),[10],-0.411
same,glycan array binding signal (z-score),GalNAc4S6S(b1-4)GlcNAc,0.312
same,glycan array binding signal (z-score),GalNAc6S(b1-4)GlcNAc,-0.433
same,glycan array binding signal (z-score),Glc(a1-4)Glc,-0.826
same,glycan array binding signal (z-score),[11],-0.616
same,glycan array binding signal (z-score),Glc(a1-6)Glc(a1-6)Glc,-0.465
same,glycan array binding signal (z-score),[12],0.817
same,glycan array binding signal (z-score),Glc(b1-4)Glc,-0.17
same,glycan array binding signal (z-score),Glc(b1-6)Glc,0.153
same,glycan array binding signal (z-score),GlcA(b1-3)Gal,0.207
same,glycan array binding signal (z-score),GlcA(b1-3)GlcNAc,0.335
same,glycan array binding signal (z-score),GlcA(b1-6)Gal,-0.265
same,glycan array binding signal (z-score),[13],-0.731
same,glycan array binding signal (z-score),[14],-0.278
same,glycan array binding signal (z-score),[15],0.489
same,glycan array binding signal (z-score),[16],0.122
same,glycan array binding signal (z-score),[17],0.835
same,glycan array binding signal (z-score),[18],-0.744
same,glycan array binding signal (z-score),[19],-0.161
same,glycan array binding signal (z-score),[20],0.196
same,glycan array binding signal (z-score),[21],0.459

# Rewritten as tab-separated lines: part of the list above
binder	measurement	setting	value
B1	glycan array binding signal (z-score)	GalNAc(b1-6)GalNAc	1.06
same	glycan array binding signal (z-score)	GalNAc3S(b1-4)GlcNAc	-0.035
same	glycan array binding signal (z-score)	GalNAc3S(b1-4)GlcNAc3S	-0.463
same	glycan array binding signal (z-score)	[10]	-0.411
same	glycan array binding signal (z-score)	GalNAc4S6S(b1-4)GlcNAc	0.312
same	glycan array binding signal (z-score)	GalNAc6S(b1-4)GlcNAc	-0.433
same	glycan array binding signal (z-score)	Glc(a1-4)Glc	-0.826
same	glycan array binding signal (z-score)	[11]	-0.616
same	glycan array binding signal (z-score)	Glc(a1-6)Glc(a1-6)Glc	-0.465
same	glycan array binding signal (z-score)	[12]	0.817
same	glycan array binding signal (z-score)	Glc(b1-4)Glc	-0.17
